In one assay the target is L1-CR1 (Her054P). The experiment in a line: ELISA, soluble scFv on L1-CR1. (In general: An ELISA detects its analyte on a solid surface through an enzyme-linked reagent.)
Assay [1] deals with Her018P, Her2 ECD with a deletion in the CR2 (Domain IV) region expressed with a mIgG2a Fc tail (human; murine) (UniProt P04626). Nature of the assay: ELISA, soluble scFv on Her018.
The target of assay [2] is Her008P, full-length extracellular domain (ECD) of Her2 expressed with a mIgG2a Fc tail (human; murine) (UniProt P04626). Nature of the assay: ELISA, soluble scFv on ECD.
For assay [3], the target named is ECD region of Her2 (human) (UniProt P04626). The experiment in a line: screening after three rounds of phage selection, soluble periplasmic scFv.
A further assay concerns the target EQR (Her017P). The experiment in a line: ELISA, soluble scFv on EQR.

Results are given in words; binding and its absence hold for the method and conditions named. Some binding calls cover weakened binding; strength is not graded here.

B1: S1R3A1_CS_1B10 (scFv, V domains shown)
VH: EVQLVQSGAEVKKPGASVRVSCKGSGNTFTGHYIHWVRQAPGQGLEWLGWIDPNTGDIQYSENFKGSVTLTRDPSINSVFMDLIRLTSDDTAMYYCAREGAGLANYYYYGLDVWGRGTMVTVSS
VL: QTVVLQEPSFSVSPGGTVTLTCGLNFGSVSTAYYPSWYQQTPGQAPRTLIYGTNIRSSGVPDRFSGSIVGNKAALTITGAQTEDESDYYCALYMGSGMLFGGGTKVTVL
Regarding B1, in the assay with L1-CR1 (Her054P), the binding result was “binds”.

B2: S1R3A1_CS_1B9 (scFv, V domains shown)
VH: KVQLVQSGTEVKKPGESLKISCQGSGYRFSSDWIAWVRQMPGKGLEWMGIVYPGDSDTRYSPSFQGQVTISADKSISTAYLQWSGLKASDTAKYYCARVQQAVGAKGYAMDVWGKGTLVTVSS
VL: QTVVIQEPSFSVSPGGTVTLTCGLSSGSVSTSYYPSWYRQTPGQAPHTLIHNTKIRSSGVPDRFSGSILGNNAALTITGAQADDESDYYCLLYMGSGIYVFGGGTKLTVL
B2: in the assay with L1-CR1 (Her054P), the binding result is reported as “binds”.

B3: S1R3B1_BMV_1H11 (scFv, V domains shown)
VH: EVQLVQSGGGLVKPGGSLRLSCAASGFTFSSYGMHWVRQAPGKGLEWVAGIFYDGGNKYYADSVKGRFTISRDNSKNTLYLQMNSLRAEDTAVYYCARDRGYYYMDVWGKGTTVTVSS
VL: QSVLTQPPSVSGAPGQRVTISCTGRSSNIGAGHDVHWYQQLPGTAPKLLIYGDSNRPSGVPDRFSGSRSGTSASLAITGLQAEDEADYYCQSYDSSLRGSVFGGGTKVTVL
Turning to B3, the binding entry (with L1-CR1 (Her054P); in assay [1]; in assay [2]; in assay [3]; with EQR (Her017P)) was “binds” in each case.

The record behind these values is patent publication US20090258005A1.
